In article PMC11741006 (RSC Chemical Biology, 2025):

Experiment: general procedure: Fmoc solid-phase peptide synthesis; Rink-Amide ChemMatrix resin (0.49 mmol/g; main text 0.45 mmol/g); DIC/Oxyma Pure
Conditions: whole synthesis; for final HPLC purity: analytical RP-HPLC
[1] = scale of the general procedure 0.1 mmol
[2] = scale of the general procedure 0.1 mmol, run 1

With “Ac Leu Thr Ala S7 Glu Tyr Trp Ala Gln Cba S7 Ser Ala Ala NH2” the “final HPLC purity” value [1] was greater than 99% and the isolated yield [1] was 11%.

In the case of “Ac Leu Thr Phe Glu His Tyr Trp Ala Gln Leu Thr Ser NH2”, the “final HPLC purity” value [1] is reported as greater than 99% and the isolated yield (scale 0.1 mmol) is reported as 23%.

In the case of “Ac Leu Thr Phe R8 Glu Tyr Trp Ala Gln Cba S5 Ser Ala Ala NH2 [2]”, the “final HPLC purity” value [2] is reported as greater than 99% and the isolated yield [2] is reported as 4%.

In the case of “Ac Leu Thr Phe R8 Glu Tyr Trp Ala Gln Cba S5 Ser Ala Ala NH2 [3]”, the “final HPLC purity” value [2] is reported as greater than 97% and the isolated yield [2] is reported as 2%.

For “Ac Leu Thr Phe S7 Glu Tyr Trp Ala Gln Cba S7 Ser Ala Ala NH2”, the “final HPLC purity” value [1] was greater than 97% and the isolated yield [1] was 10%.

For “FITC Ahx Leu Thr Ala S7 Glu Tyr Trp Ala Gln Cba S7 Ser Ala Ala NH2”, the “final HPLC purity” value [1] was greater than 98% and the isolated yield [1] was 9%.

In the case of “FITC Ahx Leu Thr Phe Glu His Tyr Trp Ala Gln Leu Thr Ser NH2”, the “final HPLC purity” value [1] is reported as greater than 99% and the isolated yield (scale 0.1 mmol) is reported as 22%.

In the case of “FITC Ahx Leu Thr Phe R8 Glu Tyr Trp Ala Gln Cba S5 Ser Ala Ala NH2 [2FITC]”, the “final HPLC purity” value [2] is reported as greater than 99% and the isolated yield [2] is reported as 4%.

For “FITC Ahx Leu Thr Phe R8 Glu Tyr Trp Ala Gln Cba S5 Ser Ala Ala NH2 [3FITC]”, the “final HPLC purity” value [2] was greater than 97% and the isolated yield [2] was 2%.

For “FITC Ahx Leu Thr Phe S7 Glu Tyr Trp Ala Gln Cba S7 Ser Ala Ala NH2”, the “final HPLC purity” value [1] was greater than 97% and the isolated yield [1] was 9%.
